Measured values taken from patent US20250074896A1, “ARYLTETRAHYDROPYRIDAZINE DERIVATIVE OR SALT THEREOF AND INSECTICIDAL AGENT CONTAINING THE COMPOUND AND METHOD FOR USING SAME” (NIHON NOHYAKU CO., LTD., priority 2021, published 2025).
Some entries share one result that the patent states for a list of compounds.

What was measured:
Assay type in all cases: in vivo
[1] = system: Small Brown Planthopper (Laodelphax striatellus); experiment: Insecticidal test on small brown planthopper (dipped rice seedlings, 3rd-instar larvae); conditions: rice seedlings dipped 30 seconds, 8 days after inoculation
[2] = system: Western Flower Thrips (Frankliniella occidentalis); experiment: Insecticidal test on western flower thrips (kidney bean leaf pieces, hatched larvae); conditions: 4 days after the treatment
[3] = system: Diamondback moth (Plutella xylostella); experiment: Insecticidal test on diamondback moth (dip treatment of Chinese cabbage seedlings with laid eggs); conditions: dip about 30 seconds, 6 days after treatment, 25° C.

N#Cc1ccc(N2CC(O)=C(C(=O)Nc3ccc(F)nc3)C(=O)N2)cc1 [1-6]
A (the mortality rate is 100%): insecticidal efficacy (corrected mortality rate) against small brown planthopper ([1]; 50 ppm) | insecticidal efficacy (corrected mortality rate) against small brown planthopper ([1]; 500 ppm) | insecticidal efficacy (corrected mortality rate) against western flower thrips ([2]; 50 ppm) | insecticidal efficacy (corrected mortality rate) against western flower thrips ([2]; 500 ppm) | insecticidal efficacy (corrected mortality rate) against diamondback moth ([3]; 50 ppm) | insecticidal efficacy (corrected mortality rate) against diamondback moth ([3]; 500 ppm)

COC(=O)N1C(=O)C(C(=O)Nc2ccc(F)c(F)c2)=C(O)CN1c1cnc(C#N)c(SC)c1 [3-177]
A (the mortality rate is 100%): insecticidal efficacy (corrected mortality rate) against small brown planthopper ([1]; 50 ppm) | insecticidal efficacy (corrected mortality rate) against small brown planthopper ([1]; 500 ppm) | insecticidal efficacy (corrected mortality rate) against western flower thrips ([2]; 50 ppm) | insecticidal efficacy (corrected mortality rate) against western flower thrips ([2]; 500 ppm) | insecticidal efficacy (corrected mortality rate) against diamondback moth ([3]; 50 ppm) | insecticidal efficacy (corrected mortality rate) against diamondback moth ([3]; 500 ppm)

COC(=O)N1C(=O)C(C(=O)Nc2ccc(F)c(C)c2)=C(O)CN1c1ccc(C#N)nc1 [3-193]
A (the mortality rate is 100%): insecticidal efficacy (corrected mortality rate) against small brown planthopper ([1]; 50 ppm) | insecticidal efficacy (corrected mortality rate) against small brown planthopper ([1]; 500 ppm) | insecticidal efficacy (corrected mortality rate) against western flower thrips ([2]; 50 ppm) | insecticidal efficacy (corrected mortality rate) against western flower thrips ([2]; 500 ppm) | insecticidal efficacy (corrected mortality rate) against diamondback moth ([3]; 50 ppm) | insecticidal efficacy (corrected mortality rate) against diamondback moth ([3]; 500 ppm)

O=C(Nc1ccc(Cl)cc1)C1=C(O)CN(c2ccc(Cl)nc2)NC1=O [1-88]
A (the mortality rate is 100%): insecticidal efficacy (corrected mortality rate) against small brown planthopper ([1]; 500 ppm) | insecticidal efficacy (corrected mortality rate) against western flower thrips ([2]; 500 ppm) | insecticidal efficacy (corrected mortality rate) against diamondback moth ([3]; 500 ppm)

COCCOC(=O)N1C(=O)C(C(=S)Nc2ccc(OC(F)(F)F)cc2)=C(O)CN1c1ccc(C#N)nc1 [4-72]
A (the mortality rate is 100%): insecticidal efficacy (corrected mortality rate) against small brown planthopper ([1]; 500 ppm) | insecticidal efficacy (corrected mortality rate) against western flower thrips ([2]; 50 ppm) | insecticidal efficacy (corrected mortality rate) against western flower thrips ([2]; 500 ppm) | insecticidal efficacy (corrected mortality rate) against diamondback moth ([3]; 500 ppm)

CNC(=O)C1=C(O)CN(c2ccc(C(F)(F)F)nc2)N(C(=O)OCC(C)C)C1=O [3-275]
A (the mortality rate is 100%): insecticidal efficacy (corrected mortality rate) against small brown planthopper ([1]; 50 ppm) | insecticidal efficacy (corrected mortality rate) against small brown planthopper ([1]; 500 ppm) | insecticidal efficacy (corrected mortality rate) against western flower thrips ([2]; 50 ppm) | insecticidal efficacy (corrected mortality rate) against western flower thrips ([2]; 500 ppm) | insecticidal efficacy (corrected mortality rate) against diamondback moth ([3]; 500 ppm)

CCNC(=O)N1C(=O)C(C(=O)Nc2ccc(F)cc2)=C(O)CN1c1ncc(C#N)cn1 [3-45]
A (the mortality rate is 100%): insecticidal efficacy (corrected mortality rate) against small brown planthopper ([1]; 50 ppm) | insecticidal efficacy (corrected mortality rate) against small brown planthopper ([1]; 500 ppm) | insecticidal efficacy (corrected mortality rate) against western flower thrips ([2]; 50 ppm) | insecticidal efficacy (corrected mortality rate) against western flower thrips ([2]; 500 ppm) | insecticidal efficacy (corrected mortality rate) against diamondback moth ([3]; 50 ppm) | insecticidal efficacy (corrected mortality rate) against diamondback moth ([3]; 500 ppm)

Cc1ccc(NC(=O)C2=C(O)CN(c3ccc(C#N)cc3)NC2=O)cc1 [1-30]
A (the mortality rate is 100%): insecticidal efficacy (corrected mortality rate) against small brown planthopper ([1]; 50 ppm) | insecticidal efficacy (corrected mortality rate) against small brown planthopper ([1]; 500 ppm) | insecticidal efficacy (corrected mortality rate) against western flower thrips ([2]; 500 ppm) | insecticidal efficacy (corrected mortality rate) against diamondback moth ([3]; 50 ppm) | insecticidal efficacy (corrected mortality rate) against diamondback moth ([3]; 500 ppm)

O=C(Nc1ccc(F)cc1)C1=C(O)CN(c2ccc(C(F)(F)F)nc2)N(C(=O)OCc2ccccc2)C1=O [3-358]
A (the mortality rate is 100%): insecticidal efficacy (corrected mortality rate) against small brown planthopper ([1]; 50 ppm) | insecticidal efficacy (corrected mortality rate) against small brown planthopper ([1]; 500 ppm) | insecticidal efficacy (corrected mortality rate) against western flower thrips ([2]; 50 ppm) | insecticidal efficacy (corrected mortality rate) against western flower thrips ([2]; 500 ppm) | insecticidal efficacy (corrected mortality rate) against diamondback moth ([3]; 50 ppm) | insecticidal efficacy (corrected mortality rate) against diamondback moth ([3]; 500 ppm)

Cn1nnnc1-c1ccc(N2CC(O)=C(C(=O)Nc3ccc(F)cc3)C(=O)N2)cn1 [1-169]
A (the mortality rate is 100%): insecticidal efficacy (corrected mortality rate) against small brown planthopper ([1]; 50 ppm) | insecticidal efficacy (corrected mortality rate) against small brown planthopper ([1]; 500 ppm) | insecticidal efficacy (corrected mortality rate) against western flower thrips ([2]; 50 ppm) | insecticidal efficacy (corrected mortality rate) against western flower thrips ([2]; 500 ppm) | insecticidal efficacy (corrected mortality rate) against diamondback moth ([3]; 50 ppm) | insecticidal efficacy (corrected mortality rate) against diamondback moth ([3]; 500 ppm)

N#Cc1ccc(N2CC(O)=C(C(=O)Nc3ccc(F)cn3)C(=O)N2)cc1 [1-34]
A (the mortality rate is 100%): insecticidal efficacy (corrected mortality rate) against small brown planthopper ([1]; 50 ppm) | insecticidal efficacy (corrected mortality rate) against small brown planthopper ([1]; 500 ppm) | insecticidal efficacy (corrected mortality rate) against western flower thrips ([2]; 50 ppm) | insecticidal efficacy (corrected mortality rate) against western flower thrips ([2]; 500 ppm) | insecticidal efficacy (corrected mortality rate) against diamondback moth ([3]; 50 ppm) | insecticidal efficacy (corrected mortality rate) against diamondback moth ([3]; 500 ppm)

CCCOC(=O)N1C(=O)C(C(=O)Nc2ccc(F)cc2)=C(O)CN1c1ccc(C#N)nc1 [3-265]
A (the mortality rate is 100%): insecticidal efficacy (corrected mortality rate) against small brown planthopper ([1]; 50 ppm) | insecticidal efficacy (corrected mortality rate) against small brown planthopper ([1]; 500 ppm) | insecticidal efficacy (corrected mortality rate) against western flower thrips ([2]; 50 ppm) | insecticidal efficacy (corrected mortality rate) against western flower thrips ([2]; 500 ppm) | insecticidal efficacy (corrected mortality rate) against diamondback moth ([3]; 500 ppm)

O=C(Nc1cccc(Cl)n1)C1=C(O)CN(c2ccc(Br)nc2)NC1=O [1-266]
A (the mortality rate is 100%): insecticidal efficacy (corrected mortality rate) against small brown planthopper ([1]; 50 ppm) | insecticidal efficacy (corrected mortality rate) against small brown planthopper ([1]; 500 ppm) | insecticidal efficacy (corrected mortality rate) against western flower thrips ([2]; 500 ppm) | insecticidal efficacy (corrected mortality rate) against diamondback moth ([3]; 50 ppm) | insecticidal efficacy (corrected mortality rate) against diamondback moth ([3]; 500 ppm)

Cc1cc(NC(=O)C2=C(O)CN(c3ccc(C#N)cc3)NC2=O)ccc1F [1-22]
A (the mortality rate is 100%): insecticidal efficacy (corrected mortality rate) against small brown planthopper ([1]; 50 ppm) | insecticidal efficacy (corrected mortality rate) against small brown planthopper ([1]; 500 ppm) | insecticidal efficacy (corrected mortality rate) against western flower thrips ([2]; 50 ppm) | insecticidal efficacy (corrected mortality rate) against western flower thrips ([2]; 500 ppm) | insecticidal efficacy (corrected mortality rate) against diamondback moth ([3]; 50 ppm) | insecticidal efficacy (corrected mortality rate) against diamondback moth ([3]; 500 ppm)

COC(=O)N1C(=O)C(C(=O)Nc2cc(F)cc(F)c2)=C(O)CN1c1cnc(C#N)c(Cl)c1 [3-491]
A (the mortality rate is 100%): insecticidal efficacy (corrected mortality rate) against small brown planthopper ([1]; 50 ppm) | insecticidal efficacy (corrected mortality rate) against small brown planthopper ([1]; 500 ppm) | insecticidal efficacy (corrected mortality rate) against western flower thrips ([2]; 50 ppm) | insecticidal efficacy (corrected mortality rate) against western flower thrips ([2]; 500 ppm) | insecticidal efficacy (corrected mortality rate) against diamondback moth ([3]; 50 ppm) | insecticidal efficacy (corrected mortality rate) against diamondback moth ([3]; 500 ppm)

CNC(=O)C1=C(O)CN(c2ccc(C#N)cc2)N(C(=O)OC)C1=O [3-460]
A (the mortality rate is 100%): insecticidal efficacy (corrected mortality rate) against small brown planthopper ([1]; 50 ppm) | insecticidal efficacy (corrected mortality rate) against small brown planthopper ([1]; 500 ppm) | insecticidal efficacy (corrected mortality rate) against western flower thrips ([2]; 500 ppm) | insecticidal efficacy (corrected mortality rate) against diamondback moth ([3]; 500 ppm)

Cc1cc(N2CC(O)=C(C(=O)Nc3ccc(C#N)cc3)C(=O)N2)cnc1C#N [1-89]
A (the mortality rate is 100%): insecticidal efficacy (corrected mortality rate) against small brown planthopper ([1]; 50 ppm) | insecticidal efficacy (corrected mortality rate) against small brown planthopper ([1]; 500 ppm) | insecticidal efficacy (corrected mortality rate) against western flower thrips ([2]; 500 ppm) | insecticidal efficacy (corrected mortality rate) against diamondback moth ([3]; 50 ppm) | insecticidal efficacy (corrected mortality rate) against diamondback moth ([3]; 500 ppm)

O=C(Nc1ccc(F)cc1F)C1=C(O)CN(c2ccc(C(F)(F)F)nc2)NC1=O [1-44]
A (the mortality rate is 100%): insecticidal efficacy (corrected mortality rate) against small brown planthopper ([1]; 500 ppm) | insecticidal efficacy (corrected mortality rate) against western flower thrips ([2]; 500 ppm) | insecticidal efficacy (corrected mortality rate) against diamondback moth ([3]; 500 ppm)

N#Cc1ccc(N2CC(O)=C(C(=O)Nc3ccc(F)cc3F)C(=O)N2)cn1 [1-207]
A (the mortality rate is 100%): insecticidal efficacy (corrected mortality rate) against small brown planthopper ([1]; 50 ppm) | insecticidal efficacy (corrected mortality rate) against small brown planthopper ([1]; 500 ppm) | insecticidal efficacy (corrected mortality rate) against western flower thrips ([2]; 50 ppm) | insecticidal efficacy (corrected mortality rate) against western flower thrips ([2]; 500 ppm) | insecticidal efficacy (corrected mortality rate) against diamondback moth ([3]; 50 ppm) | insecticidal efficacy (corrected mortality rate) against diamondback moth ([3]; 500 ppm)
